In publication PMC6969111:
Results are given in words; binding and its absence hold for the method and conditions named. Binding seen in cells or lysates may run through a third protein. Some binding calls cover weakened binding; strength is not graded here.

Protein sequences, listed by entry. Tags and fused reporters are not part of them.
UniProt Q9R049: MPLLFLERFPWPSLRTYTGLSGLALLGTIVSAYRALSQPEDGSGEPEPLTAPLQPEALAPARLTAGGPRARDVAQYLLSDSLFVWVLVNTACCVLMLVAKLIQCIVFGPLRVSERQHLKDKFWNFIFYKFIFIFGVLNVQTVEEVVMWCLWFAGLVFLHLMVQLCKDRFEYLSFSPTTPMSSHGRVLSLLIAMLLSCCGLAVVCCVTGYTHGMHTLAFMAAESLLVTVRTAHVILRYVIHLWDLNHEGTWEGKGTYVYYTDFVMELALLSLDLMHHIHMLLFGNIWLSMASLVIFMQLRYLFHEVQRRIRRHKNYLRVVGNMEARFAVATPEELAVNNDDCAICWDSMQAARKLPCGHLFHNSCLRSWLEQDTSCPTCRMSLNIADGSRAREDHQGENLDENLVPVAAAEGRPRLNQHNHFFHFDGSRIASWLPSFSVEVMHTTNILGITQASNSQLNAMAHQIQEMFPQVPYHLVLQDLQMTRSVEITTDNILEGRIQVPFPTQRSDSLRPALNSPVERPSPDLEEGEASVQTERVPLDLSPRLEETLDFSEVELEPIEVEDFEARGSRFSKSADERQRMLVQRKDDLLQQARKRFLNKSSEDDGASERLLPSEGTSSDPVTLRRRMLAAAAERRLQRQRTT

Target: T1, Insig-2 in C2C12 cells (Supplementary Fig. 1g) (UniProt Q9Y5U4)
T1 sequence: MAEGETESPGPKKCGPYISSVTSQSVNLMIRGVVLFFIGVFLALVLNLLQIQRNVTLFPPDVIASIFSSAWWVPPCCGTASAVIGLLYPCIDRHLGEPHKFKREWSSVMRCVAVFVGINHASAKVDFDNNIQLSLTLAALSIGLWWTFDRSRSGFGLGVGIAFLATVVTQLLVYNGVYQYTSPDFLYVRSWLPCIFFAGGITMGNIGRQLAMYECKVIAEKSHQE
Experiment: co-IP; C2C12 cells, undifferentiated and differentiated; IP of Insig-2, gp78 detected by blotting; IP buffer (1× PBS, 1% digitonin, 5 mM EDTA, 5 mM EGTA)

binding: binds
Substance: gp78 in C2C12 cells (Supplementary Fig. 1g) (from UniProt Q9R049 1-643) (enzyme)
